This note sets out measurements from paper PMC11996870.

Protein sequences, listed by entry. Tags and fused reporters are not part of them. Lines headed by an entry give the natural chain unless they say otherwise; changes in a name come on top. Residues count along the entry.
UniProt P20827, residues 19-182: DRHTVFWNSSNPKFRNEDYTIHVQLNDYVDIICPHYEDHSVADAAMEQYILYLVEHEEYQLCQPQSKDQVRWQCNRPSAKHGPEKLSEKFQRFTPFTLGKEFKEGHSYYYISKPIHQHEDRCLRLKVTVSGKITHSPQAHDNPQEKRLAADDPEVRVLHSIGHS
UniProt P29317: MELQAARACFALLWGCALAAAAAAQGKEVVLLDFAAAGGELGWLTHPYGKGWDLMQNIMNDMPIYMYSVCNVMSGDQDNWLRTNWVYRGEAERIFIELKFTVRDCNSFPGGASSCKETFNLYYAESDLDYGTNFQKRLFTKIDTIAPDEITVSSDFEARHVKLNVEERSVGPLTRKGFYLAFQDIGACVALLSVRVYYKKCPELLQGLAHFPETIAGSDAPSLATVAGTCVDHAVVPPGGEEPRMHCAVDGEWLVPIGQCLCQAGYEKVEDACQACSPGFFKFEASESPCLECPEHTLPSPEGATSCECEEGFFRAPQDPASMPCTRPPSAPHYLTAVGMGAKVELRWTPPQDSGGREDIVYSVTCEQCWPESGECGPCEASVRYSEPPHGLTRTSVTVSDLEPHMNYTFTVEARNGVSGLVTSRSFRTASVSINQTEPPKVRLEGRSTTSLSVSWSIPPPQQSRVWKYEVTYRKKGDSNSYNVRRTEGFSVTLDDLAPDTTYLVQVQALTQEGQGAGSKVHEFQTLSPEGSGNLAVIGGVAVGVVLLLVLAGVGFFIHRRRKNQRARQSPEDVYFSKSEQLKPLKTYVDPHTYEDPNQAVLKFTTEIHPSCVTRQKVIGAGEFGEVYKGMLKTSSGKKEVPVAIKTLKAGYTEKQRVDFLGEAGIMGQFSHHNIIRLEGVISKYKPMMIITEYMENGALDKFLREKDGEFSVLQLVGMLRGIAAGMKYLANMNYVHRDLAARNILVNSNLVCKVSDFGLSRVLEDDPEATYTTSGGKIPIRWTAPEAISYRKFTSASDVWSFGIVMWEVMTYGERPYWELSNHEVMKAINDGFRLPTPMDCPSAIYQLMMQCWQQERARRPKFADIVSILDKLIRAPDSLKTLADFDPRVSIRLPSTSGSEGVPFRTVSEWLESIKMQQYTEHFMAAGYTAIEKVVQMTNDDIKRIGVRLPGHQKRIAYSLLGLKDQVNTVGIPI

Results are given in words; binding and its absence hold for the method and conditions named. Binding seen in cells or lysates may run through a third protein. A result given as binding can be weak or reduced; the word gives no strength.

This experiment deals with EFNA1-HA (human) (UniProt P20827). The experiment is described as follows: co-IP; SiHa cells cotransfected with EFNA1-HA and FLAG-tagged EphA2 wild type or truncated mutants; immunoprecipitation with anti-HA antibodies (forward) and reverse co-IP.

Turning to “EphA2^ΔLBD (from UniProt P29317) (receptor)”, the binding entry is “binds”.

On to “EphA2^ΔLBD-KD (from UniProt P29317) (receptor)”, for which the binding entry was “binds”.

Consider “EphA2^ΔEXT (from UniProt P29317) (receptor)”, for which the binding entry is given as “no binding”.

With “EphA2^ΔLSEF (from UniProt P29317) (receptor)”, the binding entry was “binds”.

As for “EphA2^ΔFNIII (from UniProt P29317) (receptor)”, the binding entry is “no binding”.
